No constants are given. Whether binding was seen depends on the method and setting. Binding seen in cells or lysates may run through a third protein. These calls come from enrichment with a bait or labelling near it, and not all partners need be listed.

The test addresses TgWIP^WT, wild-type Toxoplasma WAVE complex-interacting protein with a C-terminal HA tag (Toxoplasma gondii). Put plainly: affinity purification with mass spectrometry; HA-tagged TgWIP variants pulled down by the HA tag from lysates of DC2.4 cells infected 4 h at MOI 7; host partners by mass spectrometry; values are negative fold changes in peptide counts of the mutant immunoprecipitations relative to TgWIP^WT.

B1: Sh3rf1, endogenous in murine DC2.4 cells (protein, UniProt Q69ZI1 1-892)
chain: MDESALLDLLECPVCLERLDASAKVLPCQHTFCKRCLLGIVGSRNELRCPECRTLVGSGVDELPSNILLVRLLDGIKQRPWKPGPGGGGGTTCTNTLRAQGSTVVNCGSKDLQSSQCGQQPRVQAWSPPVRGIPQLPCAKALYNYEGKEPGDLKFSKGDIIILRRQVDENWYHGEVSGVHGFFPTNFVQIIKPLPQPPPQCKALYDFEVKDKEADKDCLPFAKDDVLTVIRRVDENWAEGMLADKIGIFPISYVEFNSAAKQLIEWDKPPVPGVDTAECPSATAQSTSASKHPDTKKNTRKRHSFTSLTMANKSSQGSQNRHSMEISPPVLISSSNPTAAARISELSGLSCSAPSQVHISTTGLIVTPPPSSPVTTGPAFTFPSDVPYQAALGSMNPPLPPPPLLAATVLASTPSGATAAVAAAAAAAAAAGMGPRPVMGSSEQIAHLRPQTRPSVYVAIYPYTPRKEDELELRKGEMFLVFERCQDGWYKGTSMHTSKIGVFPGNYVAPVTRAVTNASQAKVSMSTAGQASRGVTMVSPSTAGGPTQKPQGNGVAGNPSVVPTAVVSAAHIQTSPQAKVLLHMSGQMTVNQARNAVRTVAAHSQERPTAAVTPIQVQNAACLGPASVGLPHHSLASQPLPPMAGPAAHGAAVSISRTNAPMACAAGASLASPNMTSAMLETEPSGRTVTILPGLPTSPESAASACGNSSAGKPDKDSKKEKKGLLKLLSGASTKRKPRVSPPASPTLDVELGAGEAPLQGAVGPELPLGGSHGRVGSCPTDGDGPVAAGTAALAQDAFHRKTSSLDSAVPIAPPPRQACSSLGPVMNEARPVVCERHRVVVSYPPQSEAELELKEGDIVFVHKKREDGWFKGTLQRNGKTGLFPGSFVENI
Consider B1, for which the binding result is “binds”.

B2: Nckap1l (Hem1), endogenous in murine DC2.4 cells (protein, UniProt Q8K1X4 1-1134)
chain: MSLTSAYQLKLAEKLTILNDRGQGVLIRMYNIKKTCSDSKSKPPFLLEKSMESCLKYINKKFPNIDVRNSTQHLGPVHREKAEIIRFLTNYYQSFVDVMEFRDHVYELLNTIDACQCHFDINLNFDFTRSYLDLIVTYTSVILLLSRIEDRRILIGMYNCAHEMLHGHSDPSFARLGQMVLEYDHPLKKLTEEFGPHTKAVSGALLSLHFLFVRRNQGAEQWRSAQLLSLISSPPAMINPANSDTMACEYLSVEVMERWIIIGFLLCHGCLNSNSQCQKLWKLCLEGSLYITLIREDVLQVHKVTEDLFSSLKGYSKRVADIKESKEHAITNSGQFHCQRRQFLRTAVKELETVLNDEPGLLGPKALFAFMALSFIRDEVTWLVRHTENVTKTKTPEDYADSSIAELLFLLEEIRALVRRHIKVIQQYHLQYLARFDVLVLSDIIQNLSVCPEEESVIMSSFVSILSSLNLKQVDNEEKFDFSGLRLDWFRLQAYTSVSKAPLHLHENPDLAKVMNLIIFHSQMLDSVEKMLVETSDLSTFCFHLRTFEKMFATTLEEPTMLRYTIAFPLICAHFVHCVHEMCPEEYPHLKNHGLHHCNSFLEDLAKQTSNCVLEICAEQRNLNEQLLPKHCATTISKAKNKKSMKQRQAPRKGEPERDKPGAESHRKNRSLVTNMDKLHLNLTELALAMNHVHSFSVFEHTIFPSEYLSSHLEARLNRAIVTLAGYNATTQEILRPSELLAGVKAYISFIQSLAQFLGADASRIVRNALLQQTQPLDSSGEQTVTTLYTNWYLESLLRQASSGAIVLSPAMQAFISLPRDGEQNFSAEEFSDISEMRALAEILGPYGMKFLSENLMWHVTSQIVELKKLVVENMDILVQIRSNFSKPELMASLLPQLTGAENVLKRMTIIGVILSFRAMAQEGLQEVFSAHCPFLMGPIECLKEFVTPDTDIKVTLSVFELACAAGVSCDIDPALVAAIANLKADNSSPEEEYKVACLLLIFLAVSLPLLATDPSSFFSIEKDGYNNNIHCLTKAIIQVSAALFTLYNKNIETHLKEFLVVASVSLLQLGQETDKLKTRNRESISLLMRLVVEESPFLTLDMLESCFPYVLLRNAYREVSRAFYLNRLPASSH
B2: the binding result is given as “binds”.

B3: Nostrin, endogenous in murine DC2.4 cells (protein, UniProt Q6WKZ7 1-506)
chain: MRDPLTDCSYNKVYKSLKEFAQHGDNFCKQITSVLQQRANLEISYAKGLQKLAVRLSKALQSTKKNCLSTAWAWASESMKSAADLHQKLGKAIELEAIKPTHQVLSMQEKKRKSLDNEVEKTANLVINNWNQQIKAKKKLMMSTKKHEALFHLVESSKQSLTQKEKQKLLNKLKKSTEKLEKEDESYYQKNMAGYSTRLKWESTLENCYKSMLELEKERIQLLCNNLNQYSQHISLFGQTLTTCHTQIHCAISKVDVEKDIQALMEETAILSIENKSELLLADYFEEDPKNPMDKERRKSLLKPKLGRLQRDIEKASRDKEGLERKLKALASSSSFSDAKSQKDMETLMDENSLKLDLLQANSYKLSSVLADLEQRPKPCHPCSTCIFKWKEKEHSHTYVKISRPLLTKRLEKAESKAPAGGQNNPSSSPSGSTVSQASKHLCKALYTFQARQDDELNLEKGDIVTVHEKKEEGWWFGSLKGKRGHFPAAYVEELPPKAGNTATQA
As to B3, the binding entry was “binds”.

B4: Brk1 (Hspc300), endogenous in murine DC2.4 cells (protein, UniProt Q91VR8 1-75)
chain: MAGQEDPVQREIHQDWANREYIEIITSSIKKISDFLNSFDMSCRSRLATLNEKLTALERRIEYIEARVTKGETLT
For the molecule B4, the binding result is recorded as “binds”.

B5: Git2, endogenous in murine DC2.4 cells (protein, UniProt Q9JLQ2 1-708)
chain: MSKRLRSSDVCADCNGPDPSWASVNRGTFICDECCSVHRSLGRHISQVRHLKHTAWPPTLLQMVETLYNNGANSIWEHSLLDPASIMSGRRKANPQDKVHPNKAEFIRAKYQMLAFVHRLPCREDDSVTAKDLSKQLHSSVRTGNLETCLRLLSLGAQANFFHPEKGSTPLHVASKAGQILQAELLAVYGADPGTQDSSGKTPVDYARQGGHHELAERLIEIQYELTDRLAFYLCGRKPDHKSGQHFLIPQRADSLDLSELAKAAKKKLQSLSNHLFEELAMDVYDEVDRRETDAVWLATQNHSTLVTETTVVPFLPVNPEYSSTRNQGRQKLARFNAHEFATLVIDILSDAKRRQQGSPLSRSKDNVELILRTVSTQHSTESQDNDQPDYDSVASDEDTDVETRASKANRQKLQTLQSENSSLRRQATASACQVQTGSDHKDTASHSSLKRRPSARGSRPMSMYETGSGQKPYLPMGEASHPEESRTRLQPFPTHIGRSALVTSSSSLPSFPSTLSWSRDESARRASRLEKQNSTPESDYDNTACDPEPDDTGSTRKGRQRSMLWQGDGLLPDTAEPHSVPSPTLPSTEDVIRKTEQITKNIQELLRAAQENKHDSYIPCSERIHVAVTEMAALFPKKPKSDTVRTSLRLLTSSAYRLQSECRKALPGDSSLPTDVQLVTQQVIQCAYDIAKAAKQLVTITTKENSS
B5: the binding result is “binds”.

B6: Git1, endogenous in murine DC2.4 cells (protein, UniProt Q68FF6 1-770)
chain: MSRKGPRAEVCADCSAPDPGWASISRGVLVCDECCSVHRSLGRHISIVKHLRHSAWPPTLLQMVHTLASNGANSIWEHSLLDPAQVQSGRRKANPQDKVHPIKSEFIRAKYQMLAFVHKLPCRDDDGVTAKDLSKQLHSSVRTGNLETCLRLLSLGAQANFFHPEKGTTPLHVAAKAGQTLQAELLVVYGADPGSPDVNGRTPIDYARQAGHHELAERLVECQYELTDRLAFYLCGRKPDHKNGHYIIPQMADRSRQKCMSQSLDLSELAKAAKKKLQALSNRLFEELAMDVYDEVDRRENDAVWLATQNHSTLVTERSAVPFLPVNPEYSATRNQGRQKLARFNAREFATLIIDILSEAKRRQQGKSLSSPTDNLELSARSQSELDDQHDYDSVASDEDTDQEPLPSAGATRNNRARSMDSSDLSDGAVTLQEYLELKKALATSEAKVQQLMKVNSSLSDELRRLQREIHKLQAENLQLRQPPGPVPPPSLPSERAEHTLMGPGGSTHRRDRQAFSMYEPGSALKPFGGTPGDELATRLQPFHSTELEDDAIYSVHVPAGLYRIRKGVSASSVPFTPSSPLLSCSQEGSRHASKLSRHGSGADSDYENTQSGDPLLGLEGKRFLELSKEDELHPELESLDGDLDPGLPSTEDVILKTEQVTKNIQELLRAAQEFKHDSFVPCSEKIHLAVTEMASLFPKRPALEPVRSSLRLLNASAYRLQSECRKTVPPEPGAPVDFQLLTQQVIQCAYDIAKAAKQLVTITTREKKQ
B6: the binding entry is on record as “binds”.

B7: Arhgef7, endogenous in murine DC2.4 cells (protein, UniProt Q9ES28 1-862)
chain: MNSAEQTVTWLITLGVLESPKKTISDPEVFLQASLKDGVVLCRLLERLLPGTIEKVYPEPRNESECLSNIREFLRACGASLRLETFDANDLYQGQNFNKVLSSLVTLNKVTADIGLGSDSVCARPSSHRIKSFDSLGSQSSHSRTSKLLQSQYRSLDMTDNTNSQLVVRAKFNFQQTNEDELSFSKGDVIHVTRVEEGGWWEGTHNGRTGWFPSNYVREIKPSEKPVSPKSGTLKSPPKGFDTTAINKSYYNVVLQNILETEHEYSKELQSVLSTYLRPLQTSDKLSSANTSYLMGNLEEISSFQQVLVQSLEECTKSPEAQQRVGGCFLSLMPQMRTLYLAYCANHPSAVSVLTEHSEDLGEFMETKGASSPGILVLTTGLSKPFMRLDKYPTLLKELERHMEDYHPDRQDIQKSMTAFKNLSAQCQEVRKRKELELQILTEPIRSWEGDDIKTLGSVTYMSQVTIQCAGSEEKNERYLLLFPNLLLMLSASPRMSGFIYQGKLPTTGMTITKLEDSENHRNAFEISGSMIERILVSCTSQQDLHEWVEHLQKQTKVTSVSNPTIKPHSVPSHTLPSHPLTPSSKHADSKPVALTPAYHTLPHPSHHGTPHTTISWGPLEPPKTPKPWSLSCLRPAPPLRPSAALCYKEDLSKSPKTMKKLLPKRKPERKPSDEEFAVRKSTAALEEDAQILKVIEAYCTSAKTRQTLNSTWQGTDLMHNHVLADDDQSSLDSLGRRSSLSRLEPSDLSEDSEYDSIWTAHSYRMGSASRSRKESAPQVLLPEEEKIIVEETKSNGQTVIEEKSLVDTVYALKDEVQELRQDNKKMKKSLEEEQRARKDLEKLVRKVLKNMNDPAWDETNL
For B7, the binding result is listed as “binds”.

B8: Abi3, endogenous in murine DC2.4 cells (protein, UniProt Q8BYZ1 1-367)
chain: MAELQQLQQLQEFDIPTGREALRGNHSALLRVANYCEDNYLQATDKRKALEETMAFTTQALASVAYQVGNLAGHTLRMLDLQGAALRQVEAKMSTLGQMVNMHMEKVARREIGTLATVVRLPSNQKVIPPESLPSLTPYHRKPLNFACLDDIGHGVKDLSTQLSRTGTLSRKSIKAPATPVSATLGRPPRIPEPVQLPAVPDGKLSAASSASSLASAGSAEGASGIPQSKGQVAPATPPPPPVAPVTPPPPPLSAEVFLPPPPLEVSQPPLEAELPLPPPPALEGDELGLLPPPPPGFGPDEPSWVPASYLEKVVTLYPYTRQKDNELSFSEGTVICVTRRYSDGWCEGVSSEGTGFFPGNYVEPSC
With B8, the binding entry is given as “binds”.

The values above are taken from publication PMC12691643.
